According to patent US20130039920A1 (SHANGHAI CANCER INSTITUTE, published 2013):
No constants are given. Whether binding was seen depends on the method and setting. Some entries that bind do so weakly or less than the wild type.

Target: rN12-S1 recombinant protein (M13 phage) (UniProt P00533)
Test: ELISA, rN12-S1 coated at 1.0 mg/L

binding: binds
B1: monoclonal antibody 12H23 (antibody, V domains shown)
VH: DVQLQESGPGLVKPSQSLSLTCTVTAYSVTSDYAWNWIRQFPGNKLEWMGYISYSGTTRYNPSLKSRISITRDTSKNQFFLQLNSMTAEDTATYYCSRQGRGFPYWGQGTLVTVSA
VL: DILMTQSPSSMSVSLGDTVSITCHASQDINSNIGWLQQKPGKSFKGLIYHGTNLEDGVPSRFSGSGSGADYSLTISSLESEDFADYYCVQYAQFPWTFGGGTKLEIKR
notes: also called murine monoclonal antibody 12H23; clone 12H23
